Data as given in PubChem BioAssay AID504791 (Drosophila RNAi Screening Center, 2011)
The deposit covers about 23,000 reagents; shown is an unselected part of those with a known target gene and a result. In the full data, 199 (0.86%) got an active call. 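Plate-scaled ratios behind the calls are not deposited; printed light signals are raw; many rows marked increased or decreased are still called inactive.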 Unmarked entries are inactive. A plus sign joins genes that one reagent is predicted to hit. Not stated in the record: the direction of the score.

- Aim: 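Genes of the fly required for silencing by miRNA, siRNA or endo-siRNA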 (primary screen)
- Cells: Drosophila S2-derived reporter cells
- Reagent: long dsRNA against Drosophila genes, about 150-250 ng dsRNA per well (siRNA assay); about 80-120 ng (miRNA assay)
- Time to read-out: about 5 days (siRNA assay); about 4 days (miRNA assay)
- Challenge: copper sulfate induction of reporters: 25 µM (siRNA assay); 200 mM stated (miRNA assay), 1-2 days before reading
- Measurement: 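Dual luciferase assay: Renilla to firefly signal ratio in each well, scaled to the mean ratio of its plate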
- Units: stable assay Renilla, run 1 in luminescence; stable assay firefly, run 1 in luminescence
- Rule for the call: 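a well was a first-pass pick when its plate-scaled ratio rose above 1.5 (siRNA assay) or 1.6 (miRNA assay), or dropped below 0.6; a gene counted only if two separate dsRNAs agreed on retest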

Scgdelta | stable assay Renilla, run 1 = 6067; stable assay firefly, run 1 = 4.60e5
Acp76A | stable assay Renilla, run 1 = 6267; stable assay firefly, run 1 = 4.03e5
Rsod | stable assay Renilla, run 1 = 6471; stable assay firefly, run 1 = 4.20e5
CG10734 | stable assay Renilla, run 1 = 6202; stable assay firefly, run 1 = 2.94e5
CG2211 | stable assay Renilla, run 1 = 6287; stable assay firefly, run 1 = 3.49e5
RpL39 | stable assay Renilla, run 1 = 8132; stable assay firefly, run 1 = 4.32e5
CG6294 + CG6299 | stable assay Renilla, run 1 = 5463; stable assay firefly, run 1 = 4.93e5
CG32726 | stable assay Renilla, run 1 = 5172; stable assay firefly, run 1 = 3.79e5
CG31802 | stable assay Renilla, run 1 = 7654; stable assay firefly, run 1 = 4.72e5
Mzt1 | stable assay Renilla, run 1 = 5975; stable assay firefly, run 1 = 4.94e5
Rpn9 | stable assay Renilla, run 1 = 7086; stable assay firefly, run 1 = 2.44e5
wfs1 | stable assay Renilla, run 1 = 7464; stable assay firefly, run 1 = 3.78e5
CG17154 | stable assay Renilla, run 1 = 5287; stable assay firefly, run 1 = 2.99e5
sing | stable assay Renilla, run 1 = 6191; stable assay firefly, run 1 = 5.33e5
l(1)G0320 | stable assay Renilla, run 1 = 7394; stable assay firefly, run 1 = 3.71e5
CG13833 | stable assay Renilla, run 1 = 8205; stable assay firefly, run 1 = 4.89e5
cype | stable assay Renilla, run 1 = 6523; stable assay firefly, run 1 = 3.93e5
Semp1 | stable assay Renilla, run 1 = 8682; stable assay firefly, run 1 = 4.88e5
CG12684 | stable assay Renilla, run 1 = 5919; stable assay firefly, run 1 = 2.69e5
CG31050 | stable assay Renilla, run 1 = 4839; stable assay firefly, run 1 = 4.10e5
CG17834 | stable assay Renilla, run 1 = 7251; stable assay firefly, run 1 = 6.70e5
CG31068 | stable assay Renilla, run 1 = 6131; stable assay firefly, run 1 = 4.47e5
CG4367 | stable assay Renilla, run 1 = 8143; stable assay firefly, run 1 = 4.10e5
Hsl | stable assay Renilla, run 1 = 12064; stable assay firefly, run 1 = 3.57e5
CG18809 | stable assay Renilla, run 1 = 6175; stable assay firefly, run 1 = 5.72e5
Obp58c | stable assay Renilla, run 1 = 6646; stable assay firefly, run 1 = 4.28e5
CG17193 | stable assay Renilla, run 1 = 7300; stable assay firefly, run 1 = 5.25e5
CG5386 | stable assay Renilla, run 1 = 5958; stable assay firefly, run 1 = 2.71e5

Reprinted from the entries so far (2 entries):
Obp58c | stable assay Renilla, run 1 = 6646; stable assay firefly, run 1 = 4.28e5
CG17193 | stable assay Renilla, run 1 = 7300; stable assay firefly, run 1 = 5.25e5
